6 molecules from publication doi:10.1101/717041 can be followed below.

Amino acid sequences for entries named in this document (tags omitted). A change or cut given only in a name is not applied to a line headed by its entry.
UniProt O75970: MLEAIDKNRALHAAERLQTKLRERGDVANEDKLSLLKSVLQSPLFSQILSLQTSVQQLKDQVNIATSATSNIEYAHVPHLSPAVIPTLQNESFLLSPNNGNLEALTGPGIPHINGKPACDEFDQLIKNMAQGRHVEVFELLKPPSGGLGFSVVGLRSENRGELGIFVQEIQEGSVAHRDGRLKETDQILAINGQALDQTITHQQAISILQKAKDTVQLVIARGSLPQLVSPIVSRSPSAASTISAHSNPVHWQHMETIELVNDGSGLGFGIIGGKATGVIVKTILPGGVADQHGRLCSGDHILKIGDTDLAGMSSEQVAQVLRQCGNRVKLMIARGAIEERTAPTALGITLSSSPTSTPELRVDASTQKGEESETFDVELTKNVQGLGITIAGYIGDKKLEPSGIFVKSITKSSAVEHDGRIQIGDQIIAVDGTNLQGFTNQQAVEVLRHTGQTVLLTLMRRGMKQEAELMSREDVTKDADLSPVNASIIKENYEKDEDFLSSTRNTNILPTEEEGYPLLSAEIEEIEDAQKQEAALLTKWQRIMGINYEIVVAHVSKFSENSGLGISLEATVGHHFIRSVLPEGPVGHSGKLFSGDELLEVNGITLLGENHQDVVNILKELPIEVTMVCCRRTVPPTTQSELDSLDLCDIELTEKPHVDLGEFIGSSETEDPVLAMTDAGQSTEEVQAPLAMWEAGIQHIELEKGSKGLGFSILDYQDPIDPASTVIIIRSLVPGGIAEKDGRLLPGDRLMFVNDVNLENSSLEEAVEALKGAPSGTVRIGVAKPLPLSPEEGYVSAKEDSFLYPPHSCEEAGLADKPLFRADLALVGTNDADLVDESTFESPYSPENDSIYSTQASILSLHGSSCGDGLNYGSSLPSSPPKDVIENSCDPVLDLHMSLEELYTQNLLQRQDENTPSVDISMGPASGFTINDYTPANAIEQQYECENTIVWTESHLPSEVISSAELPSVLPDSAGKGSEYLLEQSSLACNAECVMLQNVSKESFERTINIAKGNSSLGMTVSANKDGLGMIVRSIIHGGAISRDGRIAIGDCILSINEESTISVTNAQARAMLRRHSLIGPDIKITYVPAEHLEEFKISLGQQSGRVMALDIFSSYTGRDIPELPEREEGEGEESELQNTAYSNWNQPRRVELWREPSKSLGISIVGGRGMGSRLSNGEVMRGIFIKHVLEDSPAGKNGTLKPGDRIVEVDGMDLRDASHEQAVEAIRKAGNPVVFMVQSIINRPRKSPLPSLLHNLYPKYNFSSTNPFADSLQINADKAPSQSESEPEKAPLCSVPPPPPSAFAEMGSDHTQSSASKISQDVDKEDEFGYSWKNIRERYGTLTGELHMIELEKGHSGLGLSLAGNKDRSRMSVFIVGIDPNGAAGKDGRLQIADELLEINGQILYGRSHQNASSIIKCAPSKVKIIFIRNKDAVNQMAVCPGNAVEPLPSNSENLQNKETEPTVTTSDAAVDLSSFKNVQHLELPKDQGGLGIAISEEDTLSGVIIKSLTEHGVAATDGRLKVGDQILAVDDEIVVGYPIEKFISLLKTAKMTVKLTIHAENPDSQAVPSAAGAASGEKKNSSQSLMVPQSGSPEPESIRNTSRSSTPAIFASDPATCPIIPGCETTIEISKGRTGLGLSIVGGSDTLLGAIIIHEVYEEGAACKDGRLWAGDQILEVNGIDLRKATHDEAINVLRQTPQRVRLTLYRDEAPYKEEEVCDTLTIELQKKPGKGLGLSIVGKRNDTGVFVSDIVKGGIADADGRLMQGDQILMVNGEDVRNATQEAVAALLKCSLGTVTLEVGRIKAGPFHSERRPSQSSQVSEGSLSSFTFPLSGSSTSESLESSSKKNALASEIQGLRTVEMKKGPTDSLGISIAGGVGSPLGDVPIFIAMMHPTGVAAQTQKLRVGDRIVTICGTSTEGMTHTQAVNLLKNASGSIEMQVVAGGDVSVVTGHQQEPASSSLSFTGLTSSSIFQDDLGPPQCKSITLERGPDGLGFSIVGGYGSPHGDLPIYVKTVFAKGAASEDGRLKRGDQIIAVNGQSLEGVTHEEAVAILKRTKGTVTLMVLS

Read-outs that look alike come from different tables or passages of the source. No constants are given. Whether binding was seen depends on the method and setting. A result given as binding can be weak or reduced; the word gives no strength. For some of these results: Sequences can lack the tags named with a protein. For some of these results: In cells and extracts the contact can be indirect.

Common to all, as to assay: pull-down
In test [1] the target is GST-tagged third PDZ domain of mPDZ (UniProt O75970).
Test [2] has as its target GST-tagged mPDZ PDZ domains (UniProt O75970).
Test [3] shares this target. The source holds these as a separate data set.

With “myc-Daple Y2025E (from UniProt Q9P219 1-2028)”, the binding result in test [1] is recorded as “binds”.

As to “full length Daple-E2024K (from UniProt Q9P219 1-2028)”, in test [1], the binding entry is reported as “binds”.

In the case of “full length Daple-E2024A (from UniProt Q9P219 1-2028)”, in test [1], the binding entry is given as “binds”.

As to “full length Daple-WT (myc-Daple) (from UniProt Q9P219 1-2028)”, the binding result in test [2] and in test [1] was “binds” each time.

For the molecule “myc-Daple Y2025F (from UniProt Q9P219 1-2028)”, the binding entry in test [1] was “binds”.

B1: His-Daple-CT (aa 1650 to 2028) (domain or fragment, UniProt Q9P219 1650-2028)
chain: GTAPPYVGVRPCSASPSSEMVTLEEFLEESNRSSPTHDTPSCRDDLLSDYFRKASDPPAIGGQPGPPAKKEGAKMPTNFVAPTVKMAAPTSEGRPLKPGQYVKPNFRLTEAEAPPSVAPRQAQPPQSLSLGRPRQAPVPPASHAPASRSASLSRAFSLASADLLRASGPEACKQESPQKLGAPEALGGRETGSHTLQSPAPPSSHSLARERTPLVGKAGSSCQGPGPRSRPLDTRRFSLAPPKEERLAPLHQSATAPAIATAGAGAAAAGSGSNSQLLHFSPAAAPAARTKPKAPPRSGEVATITPVRAGLSLSEGDGVPGQGCSEGLPAKSPGRSPDLAPHLGRALEDCSRGSVSKSSPASPEPGGDPQTVWYEYGCV
B1: the binding entry in test [3] is recorded as “binds”.
